PubChem BioAssay AID1508597 | Cure First | 2020
Assay: 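Genes whose silencing sensitises or protects ovarian cancer cells against rucaparib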 (primary screen). Cells: human ovarian carcinoma lines grown from tumours: OCI-P5x (papillary serous) and OCI-C5x (clear cell). Knock-down reagent: siRNA pool against human genes, 1.25 pmol siRNA per well. Duration: 72 h or 96 h, depending on the cell culture. Treatment: rucaparib 20 µM (about IC30) or vehicle, present until read-out. Rucaparib or vehicle: Vehicle. Cell line: OCI-C5x (clear cell). Detection: 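Luminescent ATP-based viability assay read 72 or 96 h after transfection, depending on culture, given as normalised percent viability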. Direction: viability, normalised: higher = more viable cells remaining. Hit rule: 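Active when normalised viability falls below 80 percent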. Meaning of the calls: active = viability under 80%; inactive = viability 80% or more.
This is an unselected part of the about 2,100 reagents, in one setting of the screen. 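Calls flag viability under 80% in either arm, not effects specific to rucaparib; the reference for percent is not stated.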 Unmarked entries are inactive. No sequences are given here. Not stated in the record: the 100% reference.

gene	technical replicate	viability, normalised (%)
JUN	1	54.1 (active)
JUN	2	36.9 (active)
JUN	3	38.1 (active)
SKP1	1	58.1 (active)
SKP1	2	71.2 (active)
SKP1	3	64.6 (active)
PRPS1	1	74.1 (active)
PRPS1	2	55.3 (active)
PRPS1	3	46.6 (active)
BLNK	1	30.5 (active)
BLNK	2	36.7 (active)
BLNK	3	50.9 (active)
CBX3	1	47.1 (active)
CBX3	2	43.2 (active)
CBX3	3	67.6 (active)

2 entries from above, set out differently.
BLNK, technical replicate 2 | viability, normalised (%): 36.7 (active)
BLNK, technical replicate 3 | viability, normalised (%): 50.9 (active)

Further entries follow.
gene	technical replicate	viability, normalised (%)
FANCI	1	63.3 (active)
FANCI	2	63.6 (active)
FANCI	3	52.7 (active)
CDK8	1	54.3 (active)
CDK8	2	52.3 (active)
CDK8	3	69.1 (active)
CLCF1	1	27.1 (active)
CLCF1	2	45.6 (active)
CLCF1	3	42.1 (active)
MAPK11	1	66.3 (active)
MAPK11	2	82.9
MAPK11	3	53.3 (active)
YTHDC2	1	46.4 (active)
YTHDC2	2	52.9 (active)
YTHDC2	3	45.2 (active)
DDX24	1	39.8 (active)
DDX24	2	32.2 (active)
DDX24	3	42.5 (active)
FGFR1	1	76.5 (active)
FGFR1	2	71.1 (active)
FGFR1	3	72 (active)
PDK3	1	62.7 (active)
PDK3	2	60.7 (active)
PDK3	3	40.3 (active)
